Results from article doi:10.1101/2021.09.29.462327.
These are yes or no findings as the source states them, for the method shown. In cells and extracts the contact can be indirect. These calls come from enrichment with a bait or labelling near it, and not all partners need be listed.

Each substance was assayed against TbPH1-BioID2-HA (Trypanosoma brucei) (UniProt Q582W2) (assay: proximity labelling).

| binding | Substance |
| --- | --- |
| binds | TbKifX2C (from UniProt Q583P6) |
| binds | FP45 (from UniProt Q38E24) |
| binds | TbKifX2A (from UniProt Q38CW6) |
